The record followed here is publication doi:10.1101/2024.08.24.609485.

Amino acid sequences for entries named in this document (tags omitted).
UniProt Q8IZP0: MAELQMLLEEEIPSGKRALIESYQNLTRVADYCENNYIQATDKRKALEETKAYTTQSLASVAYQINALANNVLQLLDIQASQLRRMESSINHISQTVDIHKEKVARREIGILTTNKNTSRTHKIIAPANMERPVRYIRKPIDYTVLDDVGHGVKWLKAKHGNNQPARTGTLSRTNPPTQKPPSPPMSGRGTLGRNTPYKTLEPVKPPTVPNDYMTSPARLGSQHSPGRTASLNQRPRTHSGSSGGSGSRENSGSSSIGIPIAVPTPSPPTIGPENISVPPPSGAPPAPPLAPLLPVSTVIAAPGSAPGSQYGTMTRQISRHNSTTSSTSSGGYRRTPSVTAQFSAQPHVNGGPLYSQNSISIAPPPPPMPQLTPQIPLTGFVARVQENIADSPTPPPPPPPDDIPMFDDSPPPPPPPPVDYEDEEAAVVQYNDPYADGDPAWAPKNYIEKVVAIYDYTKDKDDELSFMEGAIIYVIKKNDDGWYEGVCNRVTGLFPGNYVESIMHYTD
UniProt Q8N8S7: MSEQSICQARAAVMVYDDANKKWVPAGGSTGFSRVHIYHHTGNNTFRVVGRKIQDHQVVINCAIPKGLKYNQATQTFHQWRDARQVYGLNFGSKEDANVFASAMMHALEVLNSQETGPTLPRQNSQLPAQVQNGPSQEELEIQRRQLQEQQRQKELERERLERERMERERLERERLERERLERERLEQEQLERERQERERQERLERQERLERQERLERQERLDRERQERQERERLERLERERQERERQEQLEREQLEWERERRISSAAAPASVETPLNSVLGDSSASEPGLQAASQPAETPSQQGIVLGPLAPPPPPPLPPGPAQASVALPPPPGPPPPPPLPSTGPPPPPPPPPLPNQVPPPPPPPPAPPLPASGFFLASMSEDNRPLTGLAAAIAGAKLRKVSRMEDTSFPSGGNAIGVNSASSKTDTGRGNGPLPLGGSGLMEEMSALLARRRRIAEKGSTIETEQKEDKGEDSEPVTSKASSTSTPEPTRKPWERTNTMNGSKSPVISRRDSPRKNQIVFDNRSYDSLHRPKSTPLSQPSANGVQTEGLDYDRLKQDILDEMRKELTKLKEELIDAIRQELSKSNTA
UniProt O00401: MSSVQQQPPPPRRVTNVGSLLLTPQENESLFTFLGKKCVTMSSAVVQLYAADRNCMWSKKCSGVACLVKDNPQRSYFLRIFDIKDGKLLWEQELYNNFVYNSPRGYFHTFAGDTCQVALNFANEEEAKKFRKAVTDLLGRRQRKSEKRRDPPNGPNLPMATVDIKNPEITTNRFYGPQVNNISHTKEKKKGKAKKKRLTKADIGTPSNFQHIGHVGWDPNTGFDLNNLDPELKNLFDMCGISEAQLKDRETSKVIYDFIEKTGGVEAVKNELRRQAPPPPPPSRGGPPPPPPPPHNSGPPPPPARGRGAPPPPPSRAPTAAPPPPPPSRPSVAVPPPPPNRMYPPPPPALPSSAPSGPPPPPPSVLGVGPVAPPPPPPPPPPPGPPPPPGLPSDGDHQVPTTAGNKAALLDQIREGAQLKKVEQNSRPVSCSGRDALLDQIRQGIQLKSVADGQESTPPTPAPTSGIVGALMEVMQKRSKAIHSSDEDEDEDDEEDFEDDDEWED
UniProt O97758: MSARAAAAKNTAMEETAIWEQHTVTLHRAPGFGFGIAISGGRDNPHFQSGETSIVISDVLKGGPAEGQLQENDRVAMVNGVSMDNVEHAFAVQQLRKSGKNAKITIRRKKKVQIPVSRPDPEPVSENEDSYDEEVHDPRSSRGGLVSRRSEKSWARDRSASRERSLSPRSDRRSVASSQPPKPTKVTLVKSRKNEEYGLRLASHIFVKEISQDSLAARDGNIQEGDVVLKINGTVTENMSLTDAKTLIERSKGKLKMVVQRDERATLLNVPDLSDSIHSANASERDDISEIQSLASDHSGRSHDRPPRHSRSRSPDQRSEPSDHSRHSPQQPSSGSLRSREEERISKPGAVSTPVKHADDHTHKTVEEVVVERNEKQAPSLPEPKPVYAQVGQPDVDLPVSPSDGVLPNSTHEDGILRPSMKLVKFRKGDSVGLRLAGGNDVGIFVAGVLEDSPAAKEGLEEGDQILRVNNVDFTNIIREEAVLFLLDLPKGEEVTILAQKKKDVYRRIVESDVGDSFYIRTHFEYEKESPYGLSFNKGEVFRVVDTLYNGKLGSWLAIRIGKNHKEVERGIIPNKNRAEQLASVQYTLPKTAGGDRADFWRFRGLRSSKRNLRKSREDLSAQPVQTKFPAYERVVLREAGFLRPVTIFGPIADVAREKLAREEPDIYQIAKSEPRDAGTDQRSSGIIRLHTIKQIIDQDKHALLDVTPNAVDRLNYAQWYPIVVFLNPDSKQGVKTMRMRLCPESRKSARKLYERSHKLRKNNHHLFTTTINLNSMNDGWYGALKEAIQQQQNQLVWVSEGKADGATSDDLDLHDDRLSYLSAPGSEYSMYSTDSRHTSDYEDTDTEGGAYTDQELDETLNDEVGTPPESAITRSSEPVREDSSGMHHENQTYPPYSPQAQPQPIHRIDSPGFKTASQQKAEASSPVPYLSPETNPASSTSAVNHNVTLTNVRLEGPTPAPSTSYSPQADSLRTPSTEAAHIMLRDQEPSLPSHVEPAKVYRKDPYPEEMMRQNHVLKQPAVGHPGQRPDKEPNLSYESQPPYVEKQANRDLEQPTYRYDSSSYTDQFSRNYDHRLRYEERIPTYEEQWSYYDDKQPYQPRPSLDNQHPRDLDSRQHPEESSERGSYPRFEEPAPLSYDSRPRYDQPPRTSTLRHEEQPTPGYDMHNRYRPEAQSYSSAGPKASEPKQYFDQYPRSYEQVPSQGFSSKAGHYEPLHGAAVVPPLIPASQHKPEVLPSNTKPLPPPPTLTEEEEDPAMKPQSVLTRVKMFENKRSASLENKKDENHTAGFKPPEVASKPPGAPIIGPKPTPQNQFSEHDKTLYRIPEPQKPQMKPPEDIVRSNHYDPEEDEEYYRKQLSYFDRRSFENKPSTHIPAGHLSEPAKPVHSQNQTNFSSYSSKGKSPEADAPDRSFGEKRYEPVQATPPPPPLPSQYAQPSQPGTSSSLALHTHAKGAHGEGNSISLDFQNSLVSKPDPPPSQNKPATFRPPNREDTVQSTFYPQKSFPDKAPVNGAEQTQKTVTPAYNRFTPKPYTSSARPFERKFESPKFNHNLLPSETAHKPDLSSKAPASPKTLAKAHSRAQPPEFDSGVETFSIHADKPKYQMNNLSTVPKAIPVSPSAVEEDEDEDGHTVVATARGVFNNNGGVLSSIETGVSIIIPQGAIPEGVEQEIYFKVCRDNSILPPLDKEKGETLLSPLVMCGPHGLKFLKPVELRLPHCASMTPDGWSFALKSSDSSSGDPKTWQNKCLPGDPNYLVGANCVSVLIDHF
UniProt A0A8I3PHM6: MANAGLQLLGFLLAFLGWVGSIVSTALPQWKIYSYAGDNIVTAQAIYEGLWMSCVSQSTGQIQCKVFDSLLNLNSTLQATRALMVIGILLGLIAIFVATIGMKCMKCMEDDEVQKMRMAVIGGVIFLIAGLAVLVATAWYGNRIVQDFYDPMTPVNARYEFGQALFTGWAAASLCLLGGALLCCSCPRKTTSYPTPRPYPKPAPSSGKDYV
UniProt O60610: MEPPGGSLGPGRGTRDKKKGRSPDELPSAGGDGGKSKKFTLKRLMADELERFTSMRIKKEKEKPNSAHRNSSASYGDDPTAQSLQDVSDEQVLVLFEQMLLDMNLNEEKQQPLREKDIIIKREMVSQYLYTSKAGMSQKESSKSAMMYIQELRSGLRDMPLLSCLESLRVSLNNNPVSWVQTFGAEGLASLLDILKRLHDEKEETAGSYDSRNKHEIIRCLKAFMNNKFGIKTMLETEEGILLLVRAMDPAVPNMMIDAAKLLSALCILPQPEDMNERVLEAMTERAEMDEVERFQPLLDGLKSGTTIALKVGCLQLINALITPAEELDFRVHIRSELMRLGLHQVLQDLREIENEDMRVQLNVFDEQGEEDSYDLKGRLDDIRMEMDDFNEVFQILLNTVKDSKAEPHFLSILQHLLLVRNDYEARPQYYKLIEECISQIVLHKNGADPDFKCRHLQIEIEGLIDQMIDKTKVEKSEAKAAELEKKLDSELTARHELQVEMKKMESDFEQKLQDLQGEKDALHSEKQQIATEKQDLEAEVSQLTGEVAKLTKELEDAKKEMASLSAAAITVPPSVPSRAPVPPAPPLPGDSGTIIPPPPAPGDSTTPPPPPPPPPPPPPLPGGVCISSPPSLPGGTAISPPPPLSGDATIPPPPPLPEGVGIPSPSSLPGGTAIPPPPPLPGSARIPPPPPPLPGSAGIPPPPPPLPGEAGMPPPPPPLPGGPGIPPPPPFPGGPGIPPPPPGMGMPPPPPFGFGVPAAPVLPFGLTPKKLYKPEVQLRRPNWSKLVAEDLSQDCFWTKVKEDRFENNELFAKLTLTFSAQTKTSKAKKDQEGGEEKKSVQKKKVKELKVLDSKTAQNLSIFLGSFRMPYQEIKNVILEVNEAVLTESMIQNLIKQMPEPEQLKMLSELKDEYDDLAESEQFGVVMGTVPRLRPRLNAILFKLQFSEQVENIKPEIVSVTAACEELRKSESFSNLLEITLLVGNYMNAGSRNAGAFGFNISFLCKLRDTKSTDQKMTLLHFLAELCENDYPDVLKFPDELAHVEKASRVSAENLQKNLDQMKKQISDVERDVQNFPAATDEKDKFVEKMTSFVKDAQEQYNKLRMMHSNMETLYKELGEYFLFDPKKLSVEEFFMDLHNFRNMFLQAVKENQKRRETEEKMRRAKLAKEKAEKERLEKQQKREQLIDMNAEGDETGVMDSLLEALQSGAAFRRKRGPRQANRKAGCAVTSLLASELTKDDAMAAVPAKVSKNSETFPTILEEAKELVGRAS

Where two headings read alike, the source gives them in different places. No constants are given. Whether binding was seen depends on the method and setting. In cells and extracts the contact can be indirect. Some results given as binding are weak or reduced against the parent protein; the word gives no strength. Sequences can lack the tags named with a protein.

Experiment [1] concerns the target T1, GFP-ARHGAP12a (UniProt Q8IWW6).
T1 sequence: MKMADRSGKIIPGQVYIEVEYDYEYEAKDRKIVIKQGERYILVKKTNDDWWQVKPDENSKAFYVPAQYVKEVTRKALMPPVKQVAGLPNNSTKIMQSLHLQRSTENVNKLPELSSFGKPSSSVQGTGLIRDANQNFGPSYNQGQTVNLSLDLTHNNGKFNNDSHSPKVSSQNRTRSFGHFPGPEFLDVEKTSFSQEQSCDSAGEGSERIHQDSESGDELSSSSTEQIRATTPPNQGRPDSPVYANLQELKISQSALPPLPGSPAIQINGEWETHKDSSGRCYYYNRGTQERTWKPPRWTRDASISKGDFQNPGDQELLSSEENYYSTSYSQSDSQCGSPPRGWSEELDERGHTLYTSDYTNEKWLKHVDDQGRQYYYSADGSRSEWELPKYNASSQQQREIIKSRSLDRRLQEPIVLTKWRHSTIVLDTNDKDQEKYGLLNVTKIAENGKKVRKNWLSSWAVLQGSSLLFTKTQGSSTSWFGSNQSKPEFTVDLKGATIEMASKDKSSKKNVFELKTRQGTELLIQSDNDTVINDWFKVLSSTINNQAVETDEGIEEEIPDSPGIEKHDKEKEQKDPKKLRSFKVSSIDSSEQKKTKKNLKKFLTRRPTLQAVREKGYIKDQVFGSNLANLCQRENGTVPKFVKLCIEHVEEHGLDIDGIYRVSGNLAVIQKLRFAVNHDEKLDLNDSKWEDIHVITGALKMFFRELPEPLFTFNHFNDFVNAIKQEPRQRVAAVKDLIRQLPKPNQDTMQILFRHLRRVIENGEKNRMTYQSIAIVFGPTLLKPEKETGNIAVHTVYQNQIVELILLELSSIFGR
As to the kind of experiment: co-IP.

Experiment [2] addresses T1, GFP-ARHGAP12a. As to the kind of experiment: co-IP. This is another data set of the same source.
For a further experiment, the target named is T2, GST-SH3 (UniProt Q8IWW6).
T2 sequence: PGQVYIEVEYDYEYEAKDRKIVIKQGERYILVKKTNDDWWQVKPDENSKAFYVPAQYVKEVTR
As to the kind of experiment: pull-down.

As to “Abi1 (endogenous, 293T) (from UniProt Q8IZP0 1-508)”, the binding entry with GFP-ARHGAP12a [1] is “binds”.

Consider “Mena (endogenous, 293T) (from UniProt Q8N8S7 1-591)”, for which, in the experiment with GFP-ARHGAP12a [1], the binding result is recorded as “no binding”.

In the case of “N-WASP (endogenous, 293T) (from UniProt O00401 1-505)”, the binding result in the experiment with GFP-ARHGAP12a [1] is on record as “binds”.

As to “ZO-1 (endogenous, MDCK-II) (from UniProt O97758 1-1769)”, in the experiment with GFP-ARHGAP12a [1], the binding result is “binds”.

Consider “claudin-1 (endogenous, MDCK-II) (from UniProt A0A8I3PHM6 1-211)”, for which the binding entry with GFP-ARHGAP12a [1] was “no binding”.

Regarding “mDia1 (endogenous, 293T) (from UniProt O60610 1-1272)”, in the experiment with GFP-ARHGAP12a [1], the binding result is “no binding”.

B1: ZO-2 (endogenous, MDCK-II) (protein, UniProt Q95168 1-1174)
chain: MEELIWEQYTVTLQKDSKRGFGIAVSGGRDNPHFENGETSIVISDVLPGGPADGLLQENDRVVMVNGTPMEDVLHSFAVQQLRKSGKIAAIVVKRPRKVQLAPPQGSLPVDEDDRAFEVMDEFDGRSARSGYSERSRRSSHGGRSRSWEDSPERGRPHERAWSQERERSRGRSLERGLDHDDDYRRPRERSRGRSLERGLDHDDDYGRPGERSHGMSTDRGYDRGYDRGYDRGYDRTYSPEAEYGRRTQPDARHAGSRSRSREHLRSRSPSPELRGRPDHAGQPDSDRPIGVLLMKSKANEEYGLRLGSQIFIKQMTRTALATKDGNLHEGDIILKINGTVTENMSLTDARKLIEKSRGKLQLVVLRDSKQTLINIPSLNDSDSEIEDISEIESNRSFSPEERRQQYSDYDYHSSNEKLKERPNSREDMQNRWSRMGATPTPFKSMGDIASVVGTENSKEPRYQEEPPAPQPKAAPRTFLRPSPEDEAIYGPNTKMVRFKKGDSVGLRLAGGNDVGIFVAGIQEGTSAEQEGLQEGDQILKVNTQDFRGLVREDAVLYLLEIPKGEMVTILAQSRADVYRDILACGRGDSFFIRSHFECEKETPQSLAFSRGEVFRVVDTLYDGKLGHWLAVRIGNELEKGLIPNKSRAEQMASVQNAQRDNAGDRADFWRMRGQRSGMKKNLRKSREDLTAAVSVSTKFPAYERVLLREAGFKRPVVLFGPIADIALEKLANELPDLFQTAKTEPKDAGSEKSSGVVRLNTVRQIIEQDKHALLDVTPKAVDLLNYTQWFPIVIFFNPDSRQGVKTMRQRLNPTSNKSSRKLYDQANKLKKTCAHLFTATINLNSANDSWFGSLKDTIQHQQGEAVWVSEGKMEGMDDDPEDRMSYLTAMGADYLSCDSRLISDFEDTDGEGGAYTDNELDEPAEEPLVSSITRSSEPVQHEESIRKPSPEPRAQMRRAASRDQLRDSSPPPAFKPEPPKAKTQNREESFDISRSHDYKSNPSAVAGNEVSGASTRSCPPPIAAKPSFGRSILKPSTPVPSPESEEVGEGSEEQEGAPKSVLGKVKIFEKMDHKARLQRMQELQEAQNARIEIAQKHPDIYAVPIKTHKPDPGLSQHTSSRPPEPQKGPSRLYQDPRGSYGSDAEEEEYRQQLSEHSKRGYYSQPSRYRDTEL
For B1, the binding entry in the experiment with GFP-ARHGAP12a [2] and with GST-SH3 was “binds” throughout.
